Measured values reported in patent publication US7629385B2, “Sphingolipid-derived pharmaceutical compositions” (priority 2004, dated 2009).
For at least one compound, name, drawing or mass did not settle the structure.

Test system: Raft liposomes
Test: Disrafter-Liposome Raftophile Assay (D-LRA)
Settings: test compound 100 μM; perylene as marker

CCCCCCCCCCCCC/C=C/[C@@H](O)[C@H](CO)NC(=O)[C@H]1CC[C@H](C(C)(C)C)CC1 [Compound 10e, N-(trans-4-tert-butylcyclohexylcarbonyl)-D-erythro-sphingosine]
Disrafting Activity [%]: 54.8%
